The assay has as its target T1, FLAG-tagged ELK4 (wild type) (human) (UniProt P28324).
T1 sequence: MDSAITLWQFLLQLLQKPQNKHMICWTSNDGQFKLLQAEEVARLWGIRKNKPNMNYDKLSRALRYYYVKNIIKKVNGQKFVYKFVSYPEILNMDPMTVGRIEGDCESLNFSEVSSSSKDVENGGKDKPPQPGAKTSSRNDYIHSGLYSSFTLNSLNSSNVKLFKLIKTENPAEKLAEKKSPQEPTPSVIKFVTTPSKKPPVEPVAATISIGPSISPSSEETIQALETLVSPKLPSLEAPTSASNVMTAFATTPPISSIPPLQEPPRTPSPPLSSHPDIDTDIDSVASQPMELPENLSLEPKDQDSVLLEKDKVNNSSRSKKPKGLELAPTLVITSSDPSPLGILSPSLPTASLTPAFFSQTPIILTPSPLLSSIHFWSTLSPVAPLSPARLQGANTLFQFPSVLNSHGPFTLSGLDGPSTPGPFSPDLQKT
Briefly: co-IP; ELK4 with full-length SP1 or SP3 and their serial truncations (domain deletions); cell line not stated.

Here are results for two substances from article PMC10646254.

No constants are given. Whether binding was seen depends on the method and setting. In cells and extracts the contact can be indirect. A result given as binding can be weak or reduced; the word gives no strength. Sequences can lack the tags named with a protein.

With “SP3 with loss of the zinc finger domain (domain or fragment)”, the binding entry is reported as “binds”.

In the case of “SP1 with deletion of the D domain (domain or fragment)”, the binding entry is listed as “binds”.
